Test results from publication PMC4692422.

Chains of the proteins cited; added tags and fusions are not shown. Lines headed by an entry give the natural chain unless they say otherwise; changes in a name come on top.
UniProt P42230: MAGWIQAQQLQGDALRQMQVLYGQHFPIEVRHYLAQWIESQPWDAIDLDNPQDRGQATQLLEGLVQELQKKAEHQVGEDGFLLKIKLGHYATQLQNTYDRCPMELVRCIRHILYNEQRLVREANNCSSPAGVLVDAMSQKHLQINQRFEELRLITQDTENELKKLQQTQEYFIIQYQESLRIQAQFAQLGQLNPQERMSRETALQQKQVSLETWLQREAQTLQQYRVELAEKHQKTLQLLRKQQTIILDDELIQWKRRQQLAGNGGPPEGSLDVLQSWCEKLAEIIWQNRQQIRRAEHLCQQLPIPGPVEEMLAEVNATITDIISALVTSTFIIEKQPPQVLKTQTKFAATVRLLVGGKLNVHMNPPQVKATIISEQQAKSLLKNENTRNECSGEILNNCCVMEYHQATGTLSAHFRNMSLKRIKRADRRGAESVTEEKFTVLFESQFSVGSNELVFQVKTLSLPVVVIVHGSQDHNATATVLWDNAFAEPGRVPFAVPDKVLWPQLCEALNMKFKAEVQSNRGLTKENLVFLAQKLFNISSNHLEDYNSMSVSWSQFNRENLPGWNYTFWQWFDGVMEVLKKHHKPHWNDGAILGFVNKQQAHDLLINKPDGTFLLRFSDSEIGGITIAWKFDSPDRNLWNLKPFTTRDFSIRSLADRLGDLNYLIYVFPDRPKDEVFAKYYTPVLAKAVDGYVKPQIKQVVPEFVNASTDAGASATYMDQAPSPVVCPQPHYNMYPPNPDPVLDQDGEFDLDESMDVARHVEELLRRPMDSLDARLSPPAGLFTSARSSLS

What was measured:
Assay in all cases: co-IP; HEK-293T co-transfected with STAT5 and DUSP4 plasmids; 10 ng/ml hIFNbeta and 25 uM pervanadate for 30 m before lysis; SDS-free RIPA buffer (50 mM Tris-HCl, 0.25% sodium deoxycholate, 150 mM NaCl, 0.1% NP-40, 1 mM EDTA); Flag-STAT5 precipitated on Anti-Flag M2 affinity gel at 4°C for 3 h; DUSP4 detected by western blot
[1] = molecular target: Flag-tagged STAT5 deletion mutant lacking the transcription activation domain (mouse) (UniProt P42230)
[2] = molecular target: Flag-tagged STAT5 deletion mutant lacking the DNA-binding domain (mouse) (UniProt P42230)
[3] = molecular target: Flag-tagged STAT5 deletion mutant lacking the coiled-coil domain (mouse) (UniProt P42230)

binding [1]: binds
binding [2]: binds
binding [3]: binds
B1: DUSP4-PD (phosphatase-dead mutant DUSP4, C284S) (enzyme, UniProt Q8BFV3 1-398)
chain: MVTMEELREMDCSVLKRLMNRDENGGGGSAGGNGSGSHGALGLLSGGKCLLLDCRPFLAHSAGYIRGSVNVRCNTIVRRRAKGSVSLEQILPAEEEVRARLRSGLYSAVIVYDERSPRAESLREDSTVSLVVQALRRNAERTDICLLKGGYERFSSEYPEFCSKTKALAAIPPPVPPSTNESLDLGCSSCGTPLHDQGGPVEILPFLYLGSAYHAARRDMLDALGITALLNVSSDCPNHFEGHYQYKCIPVEDNHKADISSWFMEAIEYIDAVKDCRGRVLVHSQAGISRSATICLAYLMMKKRVRLEEAFEFVKQRRSIISPNFSFMGQLLQFESQVLTTSCAAEAASPSGPLRERGKATPTPTSQFVFSFPVSVGVHAAPSNLPYLHSPITTSPSC

No constants are given. Whether binding was seen depends on the method and setting. Binding seen in cells or lysates may run through a third protein. Binding calls can cover weak binding; strength is not graded here.
